Test results as given in PubChem BioAssay AID504834 (National Center for Advancing Translational Sciences (NCATS), 2011).
In all, about 320,000 compounds went through this assay and about 22,000 (6.9%) were called active. Inconclusive results, whose numbers are uncertain, are shown with a selection of clear calls. Calls come from the whole dose curve; as a rule, active = well fitted inhibition curve with a large enough effect; inconclusive = small, poorly fitted or top-dose-only effect, or another doubt; inactive = no such curve, though single readings can be large or run the other way. Where the call is inconclusive, the potency comes from a doubtful curve fit.

Test: Primary qHTS for delayed death inhibitors of the malarial parasite plastid, 96 hour incubation
Conditions: P. falciparum luciferase reporter growth; series mostly up to 28.7 µM; activity change, negative = inhibition: at the top concentration
In short: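 96 h incubation, 37 C, 5% CO2, of luciferase-reporter P. falciparum-infected RBCs (2% hematocrit, 0.05% parasitemia final) with test compounds; endpoint luminescence.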
% is set by controls: 0 for no effect and ±100 for the full control effect; potency is the fitted concentration of half-maximal effect.

Compound	Potency	activity change, negative = inhibition
Cc1nn(C)c(C)c1Nc1ccc(N2C(=O)C3C4C=CC(C4)C3C2=O)cc1[N+](=O)[O-] (centres undefined)	inconclusive: 0.037 µM [inhibitor, full curve, poor fit]	
COc1ccc(C(C#N)c2cnccn2)cc1OC (centres undefined)	inconclusive: 18.5 µM [inhibitor, partial curve, poor fit]	
O=C(NN1C(=O)c2ccccc2NC1c1ccco1)c1ccccc1 (centres undefined)	inconclusive: 2.94 µM [inhibitor, single point]	
CCN1CCN(CCNC(=O)c2ccc(/C=C3/Sc4ccccc4N(Cc4cccc(C)c4)C3=O)cc2)CC1	inconclusive: 0.0928 µM [inhibitor, full curve, poor fit]	
Cc1cc(=O)[nH]c(SCC(N)=O)c1C#N	inconclusive: 7.38 µM [inhibitor, partial curve, poor fit]	
COc1ccccc1-c1cn(-c2ccccc2)c(=S)[nH]1	inconclusive: 13.1 µM [inhibitor, single point]	
COc1ccc(-n2nnnc2SCC(=O)Nc2nnc(C)s2)cc1OC	inconclusive: 14.7 µM [inhibitor, single point]	
CCOc1cc(/C=C2\CN(C)C/C(=C\c3ccc(O)c(OCC)c3)C2=O)ccc1O	inconclusive: 1.31 µM [inhibitor, partial curve, poor fit]	
CC(C)OP(=O)(Oc1ccc(C(O)C(Cl)(Cl)Cl)cc1)OC(C)C (centres undefined)	inconclusive: 13.1 µM [inhibitor, partial curve, poor fit]	
O=C(c1ccco1)C(O)c1ccco1 (centres undefined)		inactive: 28.1%
O=C(NCCCN1CCOCC1)c1sc2cc([N+](=O)[O-])ccc2c1Cl		inactive: 4.76% [at 5.75 µM]
Cc1cc(C)c(NC(=S)N(CCCN2CCOCC2)Cc2cccnc2)c(C)c1	inconclusive: 14.7 µM [inhibitor, single point]	
CC(OC(=O)Cn1[nH]c(=O)c2ccccc2c1=O)C(=O)Nc1ccc(F)cc1 (centres undefined)		inactive: 12.3%
CN(C)CCNc1nc(-c2ccco2)c2c(c1C#N)CC(C)(C)OC2	inconclusive: 11.7 µM [inhibitor, single point]	
OB(O)O		inactive: -3.49%
CCOC(=O)CSc1cc(C)nc2ccc(OC)cc12		inactive: 27.6%
CC1=C(C(=O)c2ccccc2)C(c2ccc(OC(F)F)cc2)NC(=S)N1 (centres undefined)	inconclusive: 18.5 µM [inhibitor, single point]	
O=C(c1cc(COc2ccc(F)cc2F)on1)N1CC[C@@H]2CCCC[C@H]2C1	inconclusive: 10.4 µM [inhibitor, single point]	
COc1cccc(CNC(=O)c2cccnc2Sc2ccc(Cl)cc2)c1		inactive: -1.02%
CC(C)(C)CN1CCN(CC#Cc2ccccc2)CC1CCO (centres undefined)	inconclusive: 9.28 µM [inhibitor, partial curve, poor fit]	
Fc1ccc(CSc2ccc3nnc(-c4cccs4)n3n2)cc1	inconclusive: 18.5 µM [inhibitor, single point]	
CCCC(=O)Nc1ccc(C(=O)Nc2cc(C(F)(F)F)ccc2Cl)cc1	inconclusive: 18.5 µM [inhibitor, single point]	

Part of the list above in order of count of non-hydrogen atoms, falling:
Compound	Potency	activity change, negative = inhibition
CCOc1cc(/C=C2\CN(C)C/C(=C\c3ccc(O)c(OCC)c3)C2=O)ccc1O	inconclusive: 1.31 µM [inhibitor, partial curve, poor fit]	
COc1ccc(-n2nnnc2SCC(=O)Nc2nnc(C)s2)cc1OC	inconclusive: 14.7 µM [inhibitor, single point]	
Cc1cc(=O)[nH]c(SCC(N)=O)c1C#N	inconclusive: 7.38 µM [inhibitor, partial curve, poor fit]	

(more compounds)

Compound	Potency	activity change, negative = inhibition
S=C(Nc1ccc2nc(-c3ccccn3)c(-c3ccccn3)nc2c1)N1CCCCC1	inconclusive: 1.85 µM [inhibitor, partial curve, poor fit]	
COCC(C)NC(=O)c1ccc2nc(-c3ccccc3)c(-c3ccccc3)nc2c1 (centres undefined)		inactive: -0.24%
CCOc1ccc(NC(c2ccccn2)c2oc(CO)cc(=O)c2O)cc1 (centres undefined)	inconclusive: 2.94 µM [inhibitor, full curve, poor fit]	
Cc1c(C(=O)c2ccccc2)c2ccccn2c1CCc1ccccn1		inactive: -21.1%
COC(=O)c1cc(Br)c(=O)n(-c2cccc(F)c2)c1	inconclusive: 0.0029 µM [inhibitor, full curve, poor fit]	
CC(=O)N1CCN(CC(C)(C)NS(=O)(=O)c2ccc(C)cc2)CC1		inactive: -27.1%
O=C(O)[C@@H]1CSC2(CCSC2)N1 (some centres undefined)	inconclusive: 13.1 µM [inhibitor, partial curve, poor fit]	
CC(C)CC1NC(C(=O)O)Cc2c1[nH]c1ccccc21 (centres undefined)	inconclusive: 11.7 µM [inhibitor, single point]	
CCOc1ccc2nc(NC(=O)CN3CCN(c4ccccn4)CC3)sc2c1	inconclusive: 14.7 µM [inhibitor, partial curve, poor fit]	
COc1ccccc1-n1c(SCC(N)=O)nc2sc3c(c2c1=O)CCC3		inactive: 1.31%
Cc1[nH]c(=O)[nH]c(=O)c1/C=N/NC(=O)[C@@H](N)CC(C)C	inconclusive: 5.22 µM [inhibitor, partial curve]	
COc1cc(C(C)=O)ccc1OCC(O)CN1CCN(c2ccc(C)cc2C)CC1 (centres undefined)	inconclusive: 13.1 µM [inhibitor, single point]	
O=C(CCCCn1c(=O)[nH]c2ccccc2c1=O)NCc1ccc2c(c1)OCO2	inconclusive: 5.86 µM [inhibitor, partial curve, poor fit]	
CCOCC(=O)Nc1ccc(F)c(F)c1		inactive: 1.82%
c1ccc(CCCCN2CCN=C2Nc2ccccc2)cc1	inconclusive: 18.5 µM [inhibitor, single point]	
CC(C)c1ccc(NC(=O)c2cnn(-c3ccccc3)c2NC(=O)c2ccco2)cc1	inconclusive: 3.29 µM [inhibitor, partial curve, poor fit]	
Cc1cccc(-c2nc(C#N)c(NC3CCCCC3)o2)c1	active: 4.65 µM	
COC(=O)CNC(=O)Cn1c(=O)n(Cc2ccc(F)cc2)c(=O)c2sccc21	active: 11.7 µM	
NC(=O)[C@@H]1CCCCNc2c(F)cc([N+](=O)[O-])cc2C(=O)N[C@@H](CCCN=C(N)N)C(=O)NCC(=O)N1	inconclusive: 0.0828 µM [inhibitor, full curve, poor fit]	
Nc1c2nc(-c3ccccc3Cl)[nH]c(=O)c2nc(=O)n1-c1ccccc1		inactive: 71%
CC(=O)c1ccc(C(=O)Nc2nnc(-c3ccc(Cl)cc3)o2)cc1		inactive: -21.8%
CN(C)c1ccc(NC(=S)c2ccc3ccccc3n2)cc1		inactive: 147%
